Data as given in PubChem BioAssay AID720505 (Drosophila RNAi Screening Center, 2013).
Screen: 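Genes needed for store-operated calcium entry in fly cells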 (primary screen). System: Drosophila S2R+ cells. Knock-down reagent: long dsRNA against Drosophila genes. Challenge: thapsigargin (2 µM) in calcium-free buffer to empty internal stores, then 2 mM calcium added back. Measurement: 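Stores emptied by 2 µM thapsigargin without calcium, then 2 mM calcium re-added; fluo-4 fluorescence followed by FLIPR in 384-well plates, per-well averaged endpoint, raw; two screen passes, some wells retested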. Direction: calcium signal: higher = more calcium entry after store depletion. Call rule: 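Knock-downs counted as hits when calcium entry dropped relative to STIM1 positive and Rho1 negative controls present on each plate; roughly 1500 genes called, with reductions of differing size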. Calls: active = called as lowering calcium entry; inactive = not called.
The screen tested about 20,000 reagents; this is an unselected part of those with a known target gene and a result. In the full data, about 2,100 (10%) got an active call. 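Raw plate signals without normalisation; calls rest on control-based scores that were not deposited; replicate 2 separates called from uncalled poorly.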 Names joined by + are all predicted targets of the reagent. Not given: the amount of reagent, the time to read-out.

no.	gene knocked down	DRSC id	calcium signal, replicate 1	calcium signal, replicate 2	outcome
1	Cog2 (Component of oligomeric golgi complex 2)	DRSC16987	112	153	inactive
2	Diedel	DRSC14317	138	122	inactive
3	CG30385	DRSC06031	138	130	inactive
4	CG15530	DRSC15067	96	92.3	inactive
5	tbc (trabuco)	DRSC20540	177	95.2	inactive
6	tbc (trabuco)	DRSC23084	126	113	inactive
7	CG8306	DRSC07141	157	116	inactive
8	CG8891	DRSC03120	170	116	inactive
9	Grp170 (Grp170 co-chaperone)	DRSC18524	122	163	inactive
10	DUBAI + Tmem18	DRSC05344	94.8	142	inactive
11	CG33107	DRSC21898	76.7	212	inactive
12	ppk9 (pickpocket 9)	DRSC04134	156	88	inactive
13	ppk9 (pickpocket 9)	DRSC04135	182	107	inactive
14	atl (atlastin)	DRSC16089	220	194	inactive
15	CG10195	DRSC02026	131	76.1	inactive
16	Gba1a (Glucocerebrosidase 1a)	DRSC21494	151	115	inactive
17	Spn47C (Serpin 47C)	DRSC07030	128	109	inactive
18	bchs (blue cheese)	DRSC03126	225	109	inactive
19	Uro (Urate oxidase)	DRSC03469	61.3	80.1	active
20	CG13748	DRSC06419	99.4	103	inactive
21	brwl (brickwall)	DRSC01080	112	117	inactive
22	brwl (brickwall)	DRSC02729	75.8	90.5	inactive
23	ND-24L (NADH dehydrogenase (ubiquinone) 24 kDa subunit-like)	DRSC10650	119	175	inactive
24	CG3430	DRSC02713	115	216	inactive
25	CG6325	DRSC16020	113	123	inactive
26	5-HT1B (5-hydroxytryptamine (serotonin) receptor 1B)	DRSC05031	112	121	inactive
27	5-HT1B (5-hydroxytryptamine (serotonin) receptor 1B)	DRSC05769	64.1	64.4	active
28	GstT3 (Glutathione S transferase T3)	DRSC20541	168	111	inactive
29	CG5961	DRSC15927	109	164	inactive
30	Neu2 (Neuroectoderm-expressed 2)	DRSC11819	91.7	122	inactive
31	CG9021	DRSC03128	117	188	inactive
32	CG32523	DRSC20510	217	89.7	inactive
33	SoYb	DRSC02901	68.8	131	inactive
34	Odc2 (Ornithine decarboxylase 2)	DRSC07483	128	79.8	inactive
35	Sol1	DRSC15263	174	109	inactive
36	Sol1	DRSC15271	168	119	inactive
37	Sol1	DRSC15681	157	147	inactive
38	Trap1	DRSC05019	152	102	inactive
39	Ugt302E1 (UDP-glycosyltransferase family 302 member E1)	DRSC15635	50	96.2	active
40	CG7236	DRSC03037	123	111	inactive
41	svr (silver)	DRSC18841	133	162	inactive
42	CG13471	DRSC10015	124	273	inactive
43	CG8320 + ATPCL	DRSC07147	100	127	inactive
44	CG10939	DRSC06019	123	119	inactive
45	CG10939	DRSC21734	102	118	inactive
46	CG5645	DRSC10532	65.4	68.6	active
47	CG42583	DRSC22937	134	167	inactive
48	ro (rough)	DRSC17046	123	162	inactive
49	Or45a (Odorant receptor 45a)	DRSC07487	105	132	inactive
50	CG15543	DRSC15081	166	222	inactive
51	Prp39 (pre-mRNA processing factor 39)	DRSC15133	116	147	inactive
52	CG16868	DRSC06633	180	99.7	inactive
53	dbf (doublefault)	DRSC02570	196	173	inactive
54	CG5376	DRSC15782	171	163	inactive
55	Z600	DRSC11317	99	138	inactive
56	CG14314	DRSC14793	224	188	inactive

4 entries from above in another layout.
| gene knocked down | DRSC id | calcium signal, replicate 1 | calcium signal, replicate 2 | outcome |
| --- | --- | --- | --- | --- |
| dbf (doublefault) | DRSC02570 | 196 | 173 | inactive |
| CG5376 | DRSC15782 | 171 | 163 | inactive |
| Z600 | DRSC11317 | 99 | 138 | inactive |
| CG14314 | DRSC14793 | 224 | 188 | inactive |
